Values from PubChem BioAssay AID1259405 (NCATS, 2018).
The whole screen tested about 50,000 reagents; this is a random part of them. In the full data, about 4,000 (8%) were called active. 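Mouse siRNA library applied to hamster cells; one well for each siRNA.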 Reagents against one gene are numbered here.

Purpose: 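Knock-downs that lift recombinant protein yield in hamster ovary cells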 (primary screen)
Cells: Chinese hamster CHO-K1 ovary cells with stable secreted eGFP expression
Reagents: single siRNA against mouse genes, 0.8 pmol siRNA per well (2 µl of 400 nM stock)
Time to read-out: 3 days
Measurement: 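Per-well intracellular GFP measured by laser scanning cytometry, plus viability from ATP luminescence, each relative to plate median of non-targeting control wells, in %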
Reading the numbers: GFP, % of control: higher = more GFP per well, higher productivity; viability (ATP), % of control: higher = more viable cells (more ATP)
Rule for the call: 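a knock-down is called active if GFP reaches 120% or more of non-targeting control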

no.	Target gene	siRNA no.	GFP, % of control	viability (ATP), % of control	outcome
1	Obscn (GeneID 380698)	1	81.3	71.4	inactive
2	Obscn (GeneID 380698)	2	63.9	53.2	inactive
3	Obscn (GeneID 380698)	3	85.6	101	inactive
4	6330549D23Rik (GeneID 229613)	1	41.8	95.6	inactive
5	6330549D23Rik (GeneID 229613)	2	94.5	82.2	inactive
6	6330549D23Rik (GeneID 229613)	3	106	80.7	inactive
7	Marveld2 (GeneID 218518)	1	103	83.2	inactive
8	Marveld2 (GeneID 218518)	2	67.8	82	inactive
9	Marveld2 (GeneID 218518)	3	53.2	31.9	inactive
10	Tgfb3 (GeneID 21809)	1	65	83.5	inactive
11	Tgfb3 (GeneID 21809)	2	110	68.6	inactive
12	Tgfb3 (GeneID 21809)	3	41.2	47.9	inactive
13	4930579C12Rik (GeneID 319213)	1	104	75.9	inactive
14	4930579C12Rik (GeneID 319213)	2	22.3	21.3	inactive
15	4930579C12Rik (GeneID 319213)	3	146	114	active
16	Phka1 (GeneID 18679)	1	74.5	92.9	inactive
17	Phka1 (GeneID 18679)	2	86.1	85.2	inactive
18	Or2b2b (GeneID 258536)	1	86.4	83.2	inactive
19	Or2b2b (GeneID 258536)	2	44.1	87.9	inactive
20	Or2b2b (GeneID 258536)	3	46.4	87.6	inactive
21	Cxxc5 (GeneID 67393)	1	67	77.4	inactive
22	Cxxc5 (GeneID 67393)	2	95.8	98.4	inactive
23	Cxxc5 (GeneID 67393)	3	74.1	88.8	inactive
24	Tas1r3 (GeneID 83771)	1	85.1	78.7	inactive
25	Tas1r3 (GeneID 83771)	2	67.6	71.7	inactive
26	Tas1r3 (GeneID 83771)	3	59.4	117	inactive
27	Lrrc18 (GeneID 67580)	1	64.3	60.1	inactive
28	Lrrc18 (GeneID 67580)	2	79.8	77.1	inactive
29	Lrrc18 (GeneID 67580)	3	93	81.7	inactive
30	Exosc3 (GeneID 66362)	1	54	66	inactive
31	Exosc3 (GeneID 66362)	2	61.4	84.2	inactive
32	Exosc3 (GeneID 66362)	3	57.4	65.3	inactive
33	Trappc8 (GeneID 75964)	1	72	91.4	inactive
34	Trappc8 (GeneID 75964)	2	87.3	98.5	inactive
35	Trappc8 (GeneID 75964)	3	75	104	inactive
36	Hoatz (GeneID 235345)	1	56.3	38.1	inactive
37	Hoatz (GeneID 235345)	2	85.7	44.4	inactive
38	Hoatz (GeneID 235345)	3	82.9	70.9	inactive
39	Dock11 (GeneID 75974)	1	123	78.3	active
40	Dock11 (GeneID 75974)	2	101	81.5	inactive
41	Dock11 (GeneID 75974)	3	60.1	79.6	inactive
42	Gtf2f2 (GeneID 68705)	1	73.4	61.2	inactive
43	Gtf2f2 (GeneID 68705)	2	112	101	inactive
44	Boll (GeneID 75388)	1	58.6	124	inactive
45	Boll (GeneID 75388)	2	69.5	89.4	inactive
46	Boll (GeneID 75388)	3	77.4	60.5	inactive
47	Pef1 (GeneID 67898)	1	57.3	86.8	inactive
48	Pef1 (GeneID 67898)	2	99.5	88.4	inactive
49	Kcns1 (GeneID 16538)	1	37.9	37.5	inactive
50	Kcns1 (GeneID 16538)	2	136	84.2	active
51	Slc1a7 (GeneID 242607)	1	61.8	70.8	inactive
52	Slc1a7 (GeneID 242607)	2	78.9	37.9	inactive
53	Slc1a7 (GeneID 242607)	3	74.2	104	inactive
54	Pop4 (GeneID 66161)	1	125	83.1	active
55	Pop4 (GeneID 66161)	2	56.9	49.6	inactive
56	Pop4 (GeneID 66161)	3	75.6	79.7	inactive
57	1700020N01Rik (GeneID 67692)	1	63.4	54.5	inactive
58	1700020N01Rik (GeneID 67692)	2	55.5	63.5	inactive
59	1700020N01Rik (GeneID 67692)	3	95.6	90.3	inactive
60	Stra8 (GeneID 20899)	1	88.9	87.4	inactive
61	Stra8 (GeneID 20899)	2	70.2	95.5	inactive
62	Stra8 (GeneID 20899)	3	140	107	active
63	Tubb2b (GeneID 73710)	1	54.9	81	inactive
64	Tubb2b (GeneID 73710)	2	85.5	107	inactive
65	Pum3 (GeneID 52874)	1	59.9	81.7	inactive
66	Pum3 (GeneID 52874)	2	54.1	53.7	inactive
67	Pum3 (GeneID 52874)	3	55.7	31.8	inactive
68	Fam228a (GeneID 74855)	1	97.7	111	inactive
69	Fam228a (GeneID 74855)	2	71.6	58.9	inactive
70	Fam228a (GeneID 74855)	3	34.9	68.1	inactive
71	4931422A03Rik (GeneID 70986)	1	85.7	90.7	inactive
72	4931422A03Rik (GeneID 70986)	2	37.3	25	inactive
73	4931422A03Rik (GeneID 70986)	3	75.4	70.1	inactive
74	Clca3b (GeneID 229927)	1	76.5	125	inactive
75	Clca3b (GeneID 229927)	2	64.1	80.3	inactive
76	Clca3b (GeneID 229927)	3	70	77.1	inactive
77	Slc25a1 (GeneID 13358)	1	120	106	inactive
78	Slc25a1 (GeneID 13358)	2	118	106	inactive
79	Slc25a1 (GeneID 13358)	3	163	141	active
80	Mpzl2 (GeneID 14012)	1	60.6	71.6	inactive
81	Mpzl2 (GeneID 14012)	2	101	80.8	inactive
82	Abcd1 (GeneID 11666)	1	76.4	80.7	inactive
83	Abcd1 (GeneID 11666)	2	115	103	inactive
84	Abcd1 (GeneID 11666)	3	58.7	85.9	inactive

Targets listed so far whose target name begins with M or m:
Target gene	siRNA no.	GFP, % of control	viability (ATP), % of control	outcome
Marveld2 (GeneID 218518)	1	103	83.2	inactive
Marveld2 (GeneID 218518)	2	67.8	82	inactive
Marveld2 (GeneID 218518)	3	53.2	31.9	inactive
Mpzl2 (GeneID 14012)	1	60.6	71.6	inactive
Mpzl2 (GeneID 14012)	2	101	80.8	inactive
